# Results are given in words; binding and its absence hold for the method and conditions named. Some binding calls cover weakened binding; strength is not graded here.
# B1: Escherichia coli L-tartrate dehydratase β subunit (enzyme, UniProt P0AC35 1-201)
# chain: MKKILTTPIKAEDLQDIRVGDVIYLTGTLVTCRDVCHRRLIELKRPIPYDLNGKAIFHAGPIVRKNGDKWEMVSVGPTTSMRMESFEREFIEQTGVKLVVGKGGMGPLTEEGCQKFKALHVIFPAGCAVLAATQVEEIEEVHWTELGMPESLWVCRVKEFGPLIVSIDTHGNNLIAENKKLFAERRDPIVEEICEHVHYIK
# Columns and labels:
# [1] = target: T1, Escherichia coli L-tartrate dehydratase α subunit (E. coli) (UniProt P05847); test: SEC
# T1 sequence: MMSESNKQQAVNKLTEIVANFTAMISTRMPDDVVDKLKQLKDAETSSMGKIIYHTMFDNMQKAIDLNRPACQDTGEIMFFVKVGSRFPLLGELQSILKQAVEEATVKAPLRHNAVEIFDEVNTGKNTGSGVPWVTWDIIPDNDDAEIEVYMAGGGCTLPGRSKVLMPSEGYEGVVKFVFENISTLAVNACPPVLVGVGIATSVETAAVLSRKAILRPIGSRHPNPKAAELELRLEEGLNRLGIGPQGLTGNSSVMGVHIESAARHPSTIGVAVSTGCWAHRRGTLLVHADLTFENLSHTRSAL
# [2] = target: T1, Escherichia coli L-tartrate dehydratase α subunit (E. coli); test: co-purification
binder,measurement,setting,value
B1,binding,[1],binds
same,binding,[2],binds
